Laboratory results: PubChem BioAssay AID1053208 (Peter MacCallum Cancer Centre, 2014)
Here is a random part of about 17,000 reagents tested. 788 of them (4.7%) count as active. 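Calls rest on z-score classes alone; an extra cut-off of viability at most 70% of control was not applied to them.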 A number with no mark means an inactive call. Reagents against one gene are numbered here. Reagent sequences are not shown.

Purpose: 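Genes whose silencing cuts survival of bone tumour cells only with doxorubicin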 (primary screen)
Cell system: mouse osteosarcoma cells, early-passage culture from an engineered mouse model of fibroblastic bone tumour
Reagents: siRNA pool against mouse genes, 40 nM
Duration: about 120 h (48 h before drug, then 72 h with drug)
Treatment: doxorubicin 100 nM for 72 h, roughly 30-40% inhibitory dose
Measurement: 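Viability read as ATP luminescence after 72 h of 100 nM doxorubicin or none, duplicate wells averaged, scaled to non-targeting siRNA, then expressed as robust z-scores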
Scale: viability z-score with doxorubicin and doxorubicin viability vs non-targeting: higher = more viable cells under doxorubicin; viability z-score without drug: higher = more viable cells with knock-down alone; z-score of drug to no-drug ratio: higher = less drug sensitisation by knock-down
Hit rule: 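a pool counts as active when its viability z-score with doxorubicin is -2 or below and its z-score without drug lies between -2 and 2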

no.	gene	reagent	combined z-score class	viability z-score with doxorubicin	viability z-score without drug	z-score of drug to no-drug ratio	doxorubicin viability vs non-targeting
1	Xirp1 (GeneID 22437)	1	low cell count with and without drug	-3.26	-2.87	-1.69	0.65
2	TMEM16D	1	no change with or without drug	0.9	-0.17	1.24	1.02
3	Tlr9 (GeneID 81897)	1	no change with or without drug	-0.9	-1.01	-0.11	0.86
4	Col23a1 (GeneID 237759)	1	no change with or without drug	1.91	1.52	1.01	1.11
5	Pcbd1 (GeneID 13180)	1	no change with or without drug	0.9	0.51	0.67	1.02
6	Slc8a3 (GeneID 110893)	1	no change with or without drug	0.9	-0.17	1.24	1.02
7	Coro2b (GeneID 235431)	1	no change with or without drug	0.45	0.51	0.22	0.98
8	Stk38 (GeneID 106504)	1	no change with or without drug	-0.79	-1.69	0.45	0.87
9	Klkb1 (GeneID 16621)	1	no change with or without drug	-0.45	0.84	-0.9	0.9
10	Cops3 (GeneID 26572)	1	no change with or without drug	-1.35	0.17	-1.46	0.82
11	Tnpo2 (GeneID 212999)	1	no change with or without drug	1.35	-0.34	1.8	1.06
12	Dnttip1 (GeneID 76233)	1	no change with or without drug	1.12	0.34	1.01	1.04
13	Immp2l (GeneID 93757)	1	no change with or without drug	1.24	-0.51	1.8	1.05
14	Rgs12 (GeneID 71729)	1	no change with or without drug	0.9	-1.18	2.02	1.02
15	Rarb (GeneID 218772)	1	high cell count without drug only	0.79	2.87	-0.9	1.01
16	Zc3h11a (GeneID 70579)	1	no change with or without drug	-0.56	0.51	-0.79	0.89
17	Kdr (GeneID 16542)	1	no change with or without drug	0.56	1.35	-0.22	0.99
18	Cep120 (GeneID 225523)	1	no change with or without drug	0	-0.84	0.67	0.94
19	Fst (GeneID 14313)	1	no change with or without drug	0.34	-0.51	0.79	0.97
20	Xpo7 (GeneID 65246)	1	no change with or without drug	-0.67	0.51	-0.9	0.88
21	Xpo7 (GeneID 65246)	2	no change with or without drug	-1.01	-1.85	0.34	0.85
22	Phkg2 (GeneID 68961)	1	no change with or without drug	0	0.51	-0.22	0.94
23	Slc16a4 (GeneID 229699)	1	low cell count without drug only	-0.67	-2.19	1.01	0.88
24	Tas2r105 (GeneID 57252)	1	no change with or without drug	-1.12	-1.69	0.11	0.84
25	Catsperd (GeneID 106757)	1	no change with or without drug	0.67	-0.84	1.46	1
26	9930038B18Rik (GeneID 319503)	1	high cell count with doxorubicin only	3.04	0.34	3.04	1.21
27	Zfp426 (GeneID 235028)	1	no change with or without drug	-0.67	-1.85	0.79	0.88
28	4930451E10Rik (GeneID 78111)	1	high cell count without drug only	0.79	2.53	-0.67	1.01
29	Traf3 (GeneID 22031)	1	no change with or without drug	-1.12	0	-1.12	0.84
30	Cd300e (GeneID 217306)	1	high cell count without drug only	0.34	2.02	-0.79	0.97
31	Or9i16 (GeneID 258627)	1	no change with or without drug	-0.45	-1.35	0.56	0.9
32	Pttg1ip (GeneID 108705)	1	no change with or without drug	-0.67	-0.17	-0.45	0.88
33	Il1f10 (GeneID 215274)	1	no change with or without drug	-0.67	0.84	-1.12	0.88
34	Lrfn4 (GeneID 225875)	1	no change with or without drug	-0.67	-0.84	0	0.88
35	Plp2 (GeneID 18824)	1	no change with or without drug	0.45	-1.69	1.91	0.98
36	Or6c1b (GeneID 258542)	1	no change with or without drug	-0.45	-1.18	0.45	0.9
37	Or8b48 (GeneID 258806)	1	no change with or without drug	0.79	-0.17	1.01	1.01
38	Ddx19a (GeneID 13680)	1	no change with or without drug	0	0.34	-0.11	0.94
39	Bag5 (GeneID 70369)	1	no change with or without drug	1.35	1.85	0.22	1.06
40	Slco4a1 (GeneID 108115)	1	no change with or without drug	0.67	0	0.79	1
41	Dcaf12l1 (GeneID 245404)	1	no change with or without drug	0.56	-0.17	0.79	0.99
42	Tmem41a (GeneID 66664)	1	no change with or without drug	0.34	-0.17	0.56	0.97
43	Rab27a (GeneID 11891)	1	no change with or without drug	-0.79	0.17	-0.79	0.87
44	Ccser2 (GeneID 72972)	1	no change with or without drug	0.45	0.84	0	0.98
45	Rasal1 (GeneID 19415)	1	high cell count with doxorubicin only	2.25	0.51	2.02	1.14
46	Phyh (GeneID 16922)	1	no change with or without drug	-0.79	0	-0.67	0.87
47	Or5k17 (GeneID 259001)	1	no change with or without drug	-1.12	-0.84	-0.56	0.84
48	Acvr1b (GeneID 11479)	1	no change with or without drug	-1.57	0.17	-1.69	0.8
49	Ugt8a (GeneID 22239)	1	no change with or without drug	0.34	0	0.45	0.97
50	Vps37d (GeneID 194309)	1	high cell count without drug only	0.9	2.19	-0.45	1.02

5 entries from above, reformatted:
gene,reagent,combined z-score class,viability z-score with doxorubicin,viability z-score without drug,z-score of drug to no-drug ratio,doxorubicin viability vs non-targeting
Tas2r105 (GeneID 57252),1,no change with or without drug,-1.12,-1.69,0.11,0.84
Catsperd (GeneID 106757),1,no change with or without drug,0.67,-0.84,1.46,1
9930038B18Rik (GeneID 319503),1,high cell count with doxorubicin only,3.04,0.34,3.04,1.21
Zfp426 (GeneID 235028),1,no change with or without drug,-0.67,-1.85,0.79,0.88
4930451E10Rik (GeneID 78111),1,high cell count without drug only,0.79,2.53,-0.67,1.01
